Reference: article PMC5150224
These are yes or no findings as the source states them, for the method shown. Binding seen in cells or lysates may run through a third protein. Some binding calls cover weakened binding; strength is not graded here.

By UniProt entry, the sequences of proteins in these tests, tags left out.
UniProt P61586: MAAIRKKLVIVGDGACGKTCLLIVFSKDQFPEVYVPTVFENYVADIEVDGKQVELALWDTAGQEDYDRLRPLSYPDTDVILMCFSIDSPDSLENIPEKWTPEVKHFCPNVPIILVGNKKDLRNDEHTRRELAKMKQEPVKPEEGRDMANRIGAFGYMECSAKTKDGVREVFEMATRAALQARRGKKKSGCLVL

Molecular target: RhoA (human (endogenous in MDA-MB-231-Luc)) (UniProt P61586)
Test: proximity ligation; in situ, Duolink 'In-cell Co-IP' kit with anti-SCN4B and anti-RhoA primary antibodies, in shCTL MDA-MB-231-Luc cells; shSCN4B (knock-down) cells as control

B1: SCN4B/β4 protein (protein, UniProt Q8IWT1 31-228)
chain: LEVSVGKATDIYAVNGTEILLPCTFSSCFGFEDLHFRWTYNSSDAFKILIEGTVKNEKSDPKVTLKDDDRITLVGSTKEKMNNISIVLRDLEFSDTGKYTCHVKNPKENNLQHHATIFLQVVDRLEEVDNTVTLIILAVVGGVIGLLILILLIKKLIIFILKKTREKKKECLVSSSGNDNTENGLPGSKAEEKPPSKV
B1 was tested, and the binding was “binds”.
